{"source": "patent US20260053759A1", "about": "“MESDOPETAM COMPOSITIONS” (ALKEM LABORATORIES LIMITED, priority 2022, published 2026)", "system": "rat stomachs", "assay": "Gastric emptying in the rat model (phenol red method)", "type": "in vivo, Male Wistar rats", "procedure": "This study aimed to investigate the prokinetic effects of Mesdopetam, a dopamine receptor antagonist, on rat stomachs by assessing gastric emptying at three different doses: 1.24 mg/kg, 2.48 mg/kg, and 3.72 mg/kg. Male Wistar rats were used as the animal model. Gastric emptying time was measured at specific time intervals post-administration, and the results were compared to determine the impact of Mesdopetam on gastric motility.\n• Animal Model: Male Wistar rats (250-300 g) were used for the study. • Drug Administration: Mesdopetam was administered orally to rats at three different doses: 1.24 mg/kg, 2.48 mg/kg, and 3.72 mg/kg. The control group received a placebo. • Experimental Groups: Rats were divided into four groups: control (receiving placebo) and three treatment groups (receiving Mesdopetam at the respective doses). • Measurement of Gastric Emptying: Gastric emptying time was measured using a non-invasive method, such as the phenol red method. Rats were fasted overnight before the experiment, and the drug was administered following the fasting period. • Data Collection: Gastric emptying time was recorded at specific time points post-treatment: 1 hour, 2 hours, 4 hours, and 8 hours. • Statistical Analysis: The data were analyzed using appropriate statistical tests (e.g., one-way ANOVA followed by post hoc tests) to determine significant differences in gastric emptying time between the control and treatment groups at each dose level.\nThe results of the study are presented as mean gastric emptying time (in minutes) for each group at different time points post-treatment: […]", "note": "For at least one compound, name, drawing or mass did not settle the structure.", "data": [{"smiles": "CCCNCCOc1cc(F)cc(S(C)(=O)=O)c1", "note": "[Mesdopetam, [2-(3-fluoro-5-methylsulfonylphenoxy)ethyl]propan-1-amine]", "values": [{"measurement": "dose relation of the prokinetic effects", "setting": "1.24, 2.48, 3.72 mg/kg", "result": "dose-dependent"}, {"measurement": "prokinetic effects on the rat stomach", "setting": "all three doses tested (1.24, 2.48, 3.72 mg/kg)", "result": "significant prokinetic effects"}, {"measurement": "gastric emptying time compared to the control group", "setting": "all time points post-treatment", "result": "significantly reduced"}]}]}
